Among the data in PMC13376596 are binding values, retold here.

By UniProt entry, the sequences of proteins in these tests, tags left out. Where a name states a change or a piece, a line headed by the entry shows the natural chain unless it says otherwise.
UniProt A0A509AJU0: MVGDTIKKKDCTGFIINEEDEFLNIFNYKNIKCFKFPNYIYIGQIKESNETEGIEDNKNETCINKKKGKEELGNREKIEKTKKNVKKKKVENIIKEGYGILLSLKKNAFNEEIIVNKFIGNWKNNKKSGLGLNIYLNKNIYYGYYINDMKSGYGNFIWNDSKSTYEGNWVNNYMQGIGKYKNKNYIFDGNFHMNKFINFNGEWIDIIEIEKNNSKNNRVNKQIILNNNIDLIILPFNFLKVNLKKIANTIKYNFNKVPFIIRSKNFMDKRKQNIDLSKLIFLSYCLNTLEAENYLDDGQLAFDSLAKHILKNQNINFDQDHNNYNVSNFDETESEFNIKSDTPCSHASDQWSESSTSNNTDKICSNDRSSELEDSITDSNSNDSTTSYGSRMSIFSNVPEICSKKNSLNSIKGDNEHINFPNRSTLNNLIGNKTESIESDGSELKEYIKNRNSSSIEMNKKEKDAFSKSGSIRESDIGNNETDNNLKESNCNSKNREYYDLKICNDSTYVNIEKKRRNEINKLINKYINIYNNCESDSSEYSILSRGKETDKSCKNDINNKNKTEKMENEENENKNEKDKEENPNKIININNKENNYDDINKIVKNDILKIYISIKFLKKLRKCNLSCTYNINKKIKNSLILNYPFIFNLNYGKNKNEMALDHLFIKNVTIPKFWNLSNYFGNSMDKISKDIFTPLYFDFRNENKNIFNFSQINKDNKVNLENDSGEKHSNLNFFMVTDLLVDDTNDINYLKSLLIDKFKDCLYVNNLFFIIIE
UniProt A0A509AND3: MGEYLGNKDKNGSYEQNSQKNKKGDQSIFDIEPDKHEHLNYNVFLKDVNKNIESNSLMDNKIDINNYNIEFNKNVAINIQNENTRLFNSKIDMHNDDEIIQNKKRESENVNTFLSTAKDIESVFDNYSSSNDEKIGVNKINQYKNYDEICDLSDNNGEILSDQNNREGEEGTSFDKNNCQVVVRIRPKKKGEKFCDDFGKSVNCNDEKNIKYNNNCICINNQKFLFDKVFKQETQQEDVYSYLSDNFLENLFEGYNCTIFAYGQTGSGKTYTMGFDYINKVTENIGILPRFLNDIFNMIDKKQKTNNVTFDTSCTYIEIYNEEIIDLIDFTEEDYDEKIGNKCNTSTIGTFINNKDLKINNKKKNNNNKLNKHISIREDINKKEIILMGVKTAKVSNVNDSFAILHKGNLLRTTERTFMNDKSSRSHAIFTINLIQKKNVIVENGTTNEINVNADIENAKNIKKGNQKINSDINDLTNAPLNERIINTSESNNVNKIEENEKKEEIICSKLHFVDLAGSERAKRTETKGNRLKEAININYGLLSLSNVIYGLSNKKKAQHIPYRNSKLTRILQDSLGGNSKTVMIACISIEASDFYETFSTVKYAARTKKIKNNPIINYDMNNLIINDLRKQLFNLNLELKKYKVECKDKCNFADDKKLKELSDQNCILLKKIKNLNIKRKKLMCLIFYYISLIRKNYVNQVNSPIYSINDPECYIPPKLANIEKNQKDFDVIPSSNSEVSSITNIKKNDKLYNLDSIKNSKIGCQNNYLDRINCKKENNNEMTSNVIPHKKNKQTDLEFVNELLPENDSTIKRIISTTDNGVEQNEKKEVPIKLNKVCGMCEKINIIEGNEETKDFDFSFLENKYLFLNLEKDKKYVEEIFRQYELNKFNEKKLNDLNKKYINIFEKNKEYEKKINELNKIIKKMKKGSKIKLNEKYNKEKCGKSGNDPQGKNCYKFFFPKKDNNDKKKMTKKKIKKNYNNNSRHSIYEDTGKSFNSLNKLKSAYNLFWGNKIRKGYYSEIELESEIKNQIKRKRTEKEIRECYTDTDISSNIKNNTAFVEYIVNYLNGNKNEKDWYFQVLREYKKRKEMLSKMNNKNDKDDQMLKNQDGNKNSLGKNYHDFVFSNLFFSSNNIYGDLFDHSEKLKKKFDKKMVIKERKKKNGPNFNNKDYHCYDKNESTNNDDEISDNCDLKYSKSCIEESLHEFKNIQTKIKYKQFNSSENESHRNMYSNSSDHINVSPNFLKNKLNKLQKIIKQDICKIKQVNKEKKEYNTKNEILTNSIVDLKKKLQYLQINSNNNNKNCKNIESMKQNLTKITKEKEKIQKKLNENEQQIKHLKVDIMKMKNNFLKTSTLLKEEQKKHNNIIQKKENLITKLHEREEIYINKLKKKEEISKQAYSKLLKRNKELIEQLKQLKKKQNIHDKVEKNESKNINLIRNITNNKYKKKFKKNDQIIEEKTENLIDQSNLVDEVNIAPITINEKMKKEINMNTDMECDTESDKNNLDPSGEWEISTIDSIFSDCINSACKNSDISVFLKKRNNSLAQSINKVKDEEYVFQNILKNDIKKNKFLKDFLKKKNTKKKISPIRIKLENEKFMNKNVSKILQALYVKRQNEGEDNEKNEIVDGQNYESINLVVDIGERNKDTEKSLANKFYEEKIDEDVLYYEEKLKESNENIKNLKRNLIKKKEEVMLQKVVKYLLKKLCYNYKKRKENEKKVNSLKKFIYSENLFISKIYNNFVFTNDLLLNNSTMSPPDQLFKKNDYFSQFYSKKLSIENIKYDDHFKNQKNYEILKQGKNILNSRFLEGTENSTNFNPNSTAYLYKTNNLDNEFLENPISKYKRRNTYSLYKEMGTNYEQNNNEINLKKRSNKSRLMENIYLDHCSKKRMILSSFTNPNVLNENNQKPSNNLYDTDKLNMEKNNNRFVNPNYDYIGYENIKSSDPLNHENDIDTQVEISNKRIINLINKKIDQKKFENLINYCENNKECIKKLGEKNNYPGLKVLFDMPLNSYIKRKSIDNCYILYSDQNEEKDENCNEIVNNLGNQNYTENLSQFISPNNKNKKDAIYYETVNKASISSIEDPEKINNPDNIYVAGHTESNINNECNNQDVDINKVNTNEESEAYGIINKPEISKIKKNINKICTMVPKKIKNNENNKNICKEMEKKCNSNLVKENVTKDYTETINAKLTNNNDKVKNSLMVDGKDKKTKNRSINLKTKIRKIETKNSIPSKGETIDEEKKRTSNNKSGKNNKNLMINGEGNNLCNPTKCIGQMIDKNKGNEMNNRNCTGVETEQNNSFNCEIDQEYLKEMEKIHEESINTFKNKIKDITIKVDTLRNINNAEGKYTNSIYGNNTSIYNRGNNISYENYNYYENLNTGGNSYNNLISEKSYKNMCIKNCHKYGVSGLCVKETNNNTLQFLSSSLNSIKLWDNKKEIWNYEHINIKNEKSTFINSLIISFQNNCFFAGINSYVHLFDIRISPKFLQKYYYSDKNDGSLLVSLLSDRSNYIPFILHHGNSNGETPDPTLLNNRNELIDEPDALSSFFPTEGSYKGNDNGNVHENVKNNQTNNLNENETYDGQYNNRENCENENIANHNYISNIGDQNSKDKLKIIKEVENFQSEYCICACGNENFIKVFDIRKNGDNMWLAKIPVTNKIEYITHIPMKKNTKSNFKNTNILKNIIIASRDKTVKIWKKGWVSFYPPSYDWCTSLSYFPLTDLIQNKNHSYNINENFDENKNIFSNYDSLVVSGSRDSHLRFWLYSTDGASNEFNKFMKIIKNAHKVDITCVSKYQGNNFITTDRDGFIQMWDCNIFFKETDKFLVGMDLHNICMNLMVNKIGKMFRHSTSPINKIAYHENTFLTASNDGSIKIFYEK
UniProt A0A509ATL7: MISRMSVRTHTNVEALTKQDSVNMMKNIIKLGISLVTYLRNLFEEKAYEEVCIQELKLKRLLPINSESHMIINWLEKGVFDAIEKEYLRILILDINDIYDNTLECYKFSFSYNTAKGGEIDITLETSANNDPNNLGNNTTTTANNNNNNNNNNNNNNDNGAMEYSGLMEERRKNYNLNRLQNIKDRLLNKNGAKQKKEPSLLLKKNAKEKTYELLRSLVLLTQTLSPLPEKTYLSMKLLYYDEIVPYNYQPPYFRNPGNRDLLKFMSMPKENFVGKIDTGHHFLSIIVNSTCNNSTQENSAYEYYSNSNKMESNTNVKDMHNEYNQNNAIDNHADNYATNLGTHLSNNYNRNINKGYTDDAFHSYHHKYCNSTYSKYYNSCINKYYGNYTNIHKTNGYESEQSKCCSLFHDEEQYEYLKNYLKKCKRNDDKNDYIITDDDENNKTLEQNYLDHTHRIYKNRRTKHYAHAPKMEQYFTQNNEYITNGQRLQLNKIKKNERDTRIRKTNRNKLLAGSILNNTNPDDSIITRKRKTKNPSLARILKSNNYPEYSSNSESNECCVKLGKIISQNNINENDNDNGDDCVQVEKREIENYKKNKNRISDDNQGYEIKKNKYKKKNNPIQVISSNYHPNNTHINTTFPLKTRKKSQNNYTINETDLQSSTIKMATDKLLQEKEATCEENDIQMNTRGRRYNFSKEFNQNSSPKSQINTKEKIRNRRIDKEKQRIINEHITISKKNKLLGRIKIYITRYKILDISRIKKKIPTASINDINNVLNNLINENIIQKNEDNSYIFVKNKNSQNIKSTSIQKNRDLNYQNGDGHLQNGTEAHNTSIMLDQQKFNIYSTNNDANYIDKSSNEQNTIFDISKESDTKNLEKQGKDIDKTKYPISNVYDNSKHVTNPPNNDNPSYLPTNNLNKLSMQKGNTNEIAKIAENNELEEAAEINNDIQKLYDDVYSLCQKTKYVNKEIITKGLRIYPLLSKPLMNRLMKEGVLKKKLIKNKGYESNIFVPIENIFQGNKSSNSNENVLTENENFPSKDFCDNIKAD
UniProt A0A509AU31: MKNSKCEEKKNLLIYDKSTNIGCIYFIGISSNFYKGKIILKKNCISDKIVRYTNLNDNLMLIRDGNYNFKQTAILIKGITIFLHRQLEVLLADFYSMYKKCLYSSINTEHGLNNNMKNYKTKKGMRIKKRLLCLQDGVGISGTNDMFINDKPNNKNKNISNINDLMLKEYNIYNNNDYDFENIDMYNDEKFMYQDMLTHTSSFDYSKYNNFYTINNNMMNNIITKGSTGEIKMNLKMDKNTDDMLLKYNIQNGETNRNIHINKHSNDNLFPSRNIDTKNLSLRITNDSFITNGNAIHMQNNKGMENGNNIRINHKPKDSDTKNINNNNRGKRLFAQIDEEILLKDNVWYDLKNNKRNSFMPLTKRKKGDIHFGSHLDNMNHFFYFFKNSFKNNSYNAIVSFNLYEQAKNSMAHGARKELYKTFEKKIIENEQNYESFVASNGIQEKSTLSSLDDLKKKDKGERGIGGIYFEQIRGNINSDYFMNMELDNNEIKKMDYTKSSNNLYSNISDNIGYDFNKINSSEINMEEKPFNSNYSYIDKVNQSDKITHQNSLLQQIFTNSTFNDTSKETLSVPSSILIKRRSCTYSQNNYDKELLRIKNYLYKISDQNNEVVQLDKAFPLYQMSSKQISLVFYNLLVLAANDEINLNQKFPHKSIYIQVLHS

Results are given in words; binding and its absence hold for the method and conditions named. Binding seen in cells or lysates may run through a third protein. Here binding means that the protein was enriched with, or labelled near, the bait; the list need not be complete.

The target in the test is PbNEK4-GFP (Plasmodium berghei NIMA-related kinase NEK4 with a C-terminal GFP tag) (Plasmodium berghei). The test is described as follows: affinity purification with mass spectrometry; GFP-Trap_A (Chromotek) immunoprecipitation of PbNEK4-GFP from zygotes activated for 2 h and cross-linked with 1% formaldehyde for 10 min at room temperature; WT-GFP zygotes as control; on-bead trypsin digest, LC-MS/MS; two independent biological replicates.
Turning to “MORN repeat protein (PBANKA_1030400) (from UniProt A0A509AJU0)”, the binding entry was “binds”. “Kinesin-4 (PBANKA_1208200) (from UniProt A0A509AND3)”: the binding result is on record as “binds”. The value for “HOP1 (putative synaptonemal complex component, PBANKA_1407900) (from UniProt A0A509ATL7)” was “binds”; that for “REC8 (PBANKA_1419300) (from UniProt A0A509AU31)” was “binds”.
